Assay results published in the supplement of paper PMC8728848.
This is one part of the list.

Assays:
Experiment in all cases: glycan array binding signal (z-score within array); higher = stronger binding
Details in all cases: glycan notation: IUPAC condensed, linker removed
[1] = target: Neu5Ac(a2-3)Gal(b1-3)GalNAc
Procedure, shortened: (§1)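 Negative Z-scores can be read as non-binding. The Z-score is calculated within each array and then averaged across arrays of one protein sequence at different concentrations or buffers and across linkers. Arrays, 3228 in all, were curated from the Consortium for Functional Glycomics database and kept only where the protein sequence was available.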

[2] = target: Neu5Ac(a2-3)Gal(b1-3)GalNAc(b1-3)Gal(a1-4)Gal(b1-4)Glc
Procedure, shortened: as §1

[3] = target: Neu5Ac(a2-3)Gal(b1-3)GalNAc(b1-4)Gal(b1-4)Glc
Procedure, shortened: as §1

[4] = target: Neu5Ac(a2-3)Gal(b1-3)GalNAc(b1-4)[Neu5Ac(a2-3)]Gal(b1-4)Glc
Procedure, shortened: as §1

[5] = target: Neu5Ac(a2-3)Gal(b1-3)GalNAc(b1-4)[Neu5Ac(a2-8)Neu5Ac(a2-3)]Gal(b1-4)Glc
Procedure, shortened: as §1

[6] = target: Neu5Ac(a2-3)Gal(b1-3)GalNAc6S
Procedure, shortened: as §1

[7] = target: Neu5Ac(a2-3)Gal(b1-3)GlcNAc
Procedure, shortened: as §1

[8] = target: Neu5Ac(a2-3)Gal(b1-3)GlcNAc(b1-2)Man
Procedure, shortened: as §1

[9] = target: Neu5Ac(a2-3)Gal(b1-3)GlcNAc(b1-2)Man(a1-3)[GlcNAc(b1-4)][Neu5Ac(a2-3)Gal(b1-3)GlcNAc(b1-2)Man(a1-6)]Man(b1-4)GlcNAc(b1-4)GlcNAc
Procedure, shortened: as §1

[10] = target: Neu5Ac(a2-3)Gal(b1-3)GlcNAc(b1-2)Man(a1-3)[Neu5Ac(a2-3)Gal(b1-3)GlcNAc(b1-2)Man(a1-6)]Man(b1-4)GlcNAc(b1-4)GlcNAc
Procedure, shortened: as §1

[11] = target: Neu5Ac(a2-3)Gal(b1-3)GlcNAc(b1-2)[Neu5Ac(a2-3)Gal(b1-3)GlcNAc(b1-4)]Man(a1-6)[Neu5Ac(a2-3)Gal(b1-3)GlcNAc(b1-2)Man(a1-3)]Man(b1-4)GlcNAc(b1-4)GlcNAc
Procedure, shortened: as §1

[12] = target: Neu5Ac(a2-3)Gal(b1-3)GlcNAc(b1-3)Gal(b1-3)GlcNAc
Procedure, shortened: as §1

[13] = target: Neu5Ac(a2-3)Gal(b1-3)GlcNAc(b1-3)Gal(b1-4)GlcNAc
Procedure, shortened: as §1

[14] = target: Neu5Ac(a2-3)Gal(b1-3)GlcNAc(b1-3)GalNAc
Procedure, shortened: as §1

[15] = target: Neu5Ac(a2-3)Gal(b1-3)GlcNAc(b1-6)GalNAc
Procedure, shortened: as §1

[16] = target: Neu5Ac(a2-3)Gal(b1-3)GlcNAc6S
Procedure, shortened: as §1

[17] = target: Neu5Ac(a2-3)Gal(b1-3)[Fuc(a1-4)]GlcNAc
Procedure, shortened: as §1

[18] = target: Neu5Ac(a2-3)Gal(b1-3)[Fuc(a1-4)]GlcNAc(b1-3)Gal(b1-3)[Fuc(a1-4)]GlcNAc
Procedure, shortened: as §1

[19] = target: Neu5Ac(a2-3)Gal(b1-3)[Fuc(a1-4)]GlcNAc(b1-3)Gal(b1-4)[Fuc(a1-3)]GlcNAc
Procedure, shortened: as §1

[20] = target: Neu5Ac(a2-3)Gal(b1-3)[GlcNAc(b1-6)]GalNAc
Procedure, shortened: as §1

[21] = target: Neu5Ac(a2-3)Gal(b1-3)[Neu5Ac(a2-6)]GalNAc
Procedure, shortened: as §1

[22] = target: Neu5Ac(a2-3)Gal(b1-3)[Neu5Ac(a2-6)]GlcNAc(b1-3)[Fuc(a1-3)[Gal(b1-4)]GlcNAc(b1-6)]Gal(b1-4)Glc
Procedure, shortened: as §1

[23] = target: Neu5Ac(a2-3)Gal(b1-3)]Neu5Ac(a2-3)Gal(b1-4)]GlcNAc
Procedure, shortened: as §1

Neu5Ac(a2-3)Gal(b1-4)Glc = target: Neu5Ac(a2-3)Gal(b1-4)Glc
Procedure, shortened: as §1

[24] = target: Neu5Ac(a2-3)Gal(b1-4)GlcNAc
Procedure, shortened: as §1

[25] = target: Neu5Ac(a2-3)Gal(b1-4)GlcNAc(b1-2)Man
Procedure, shortened: as §1

[26] = target: Neu5Ac(a2-3)Gal(b1-4)GlcNAc(b1-2)Man(a1-3)[GlcNAc(b1-4)][Neu5Ac(a2-3)Gal(b1-4)GlcNAc(b1-2)Man(a1-6)]Man(b1-4)GlcNAc(b1-4)GlcNAc
Procedure, shortened: as §1

[27] = target: Neu5Ac(a2-3)Gal(b1-4)GlcNAc(b1-2)Man(a1-3)[Neu5Ac(a2-3)Gal(b1-4)GlcNAc(b1-2)Man(a1-6)]Man(b1-4)GlcNAc(b1-4)GlcNAc
Procedure, shortened: as §1

[28] = target: Neu5Ac(a2-3)Gal(b1-4)GlcNAc(b1-2)Man(a1-3)[Neu5Ac(a2-3)Gal(b1-4)GlcNAc(b1-2)Man(a1-6)]Man(b1-4)GlcNAc(b1-4)[Fuc(a1-6)]GlcNAc
Procedure, shortened: as §1

[29] = target: Neu5Ac(a2-3)Gal(b1-4)GlcNAc(b1-2)Man(a1-3)[Neu5Ac(a2-6)Gal(b1-4)GlcNAc(b1-2)Man(a1-6)]Man(b1-4)GlcNAc(b1-4)GlcNAc
Procedure, shortened: as §1

[30] = target: Neu5Ac(a2-3)Gal(b1-4)GlcNAc(b1-2)[Neu5Ac(a2-3)Gal(b1-4)GlcNAc(b1-4)]Man(a1-3)[GlcNAc(b1-4)][Neu5Ac(a2-3)Gal(b1-4)GlcNAc(b1-2)[Neu5Ac(a2-3)Gal(b1-4)GlcNAc(b1-6)]Man(a1-6)]Man(b1-4)GlcNAc(b1-4)GlcNAc
Procedure, shortened: as §1

[31] = target: Neu5Ac(a2-3)Gal(b1-4)GlcNAc(b1-2)[Neu5Ac(a2-3)Gal(b1-4)GlcNAc(b1-4)]Man(a1-3)[GlcNAc(b1-4)][Neu5Ac(a2-3)Gal(b1-4)GlcNAc(b1-4)Man(a1-6)]Man(b1-4)GlcNAc(b1-4)GlcNAc
Procedure, shortened: as §1

[32] = target: Neu5Ac(a2-3)Gal(b1-4)GlcNAc(b1-2)[Neu5Ac(a2-3)Gal(b1-4)GlcNAc(b1-6)]Man(a1-6)[Neu5Ac(a2-3)Gal(b1-4)GlcNAc(b1-2)Man(a1-3)][GlcNAc(b1-4)]Man(b1-4)GlcNAc(b1-4)GlcNAc
Procedure, shortened: as §1

[33] = target: Neu5Ac(a2-3)Gal(b1-4)GlcNAc(b1-3)Gal
Procedure, shortened: as §1

[34] = target: Neu5Ac(a2-3)Gal(b1-4)GlcNAc(b1-3)Gal(b1-3)GlcNAc
Procedure, shortened: as §1

[35] = target: Neu5Ac(a2-3)Gal(b1-4)GlcNAc(b1-3)Gal(b1-4)GlcNAc
Procedure, shortened: as §1

[36] = target: Neu5Ac(a2-3)Gal(b1-4)GlcNAc(b1-3)Gal(b1-4)GlcNAc(b1-2)Man(a1-3)[Neu5Ac(a2-3)Gal(b1-4)GlcNAc(b1-3)Gal(b1-4)GlcNAc(b1-2)Man(a1-6)]Man(b1-4)GlcNAc(b1-4)GlcNAc
Procedure, shortened: as §1

[37] = target: Neu5Ac(a2-3)Gal(b1-4)GlcNAc(b1-3)Gal(b1-4)GlcNAc(b1-3)Gal(b1-4)GlcNAc
Procedure, shortened: as §1

[38] = target: Neu5Ac(a2-3)Gal(b1-4)GlcNAc(b1-3)Gal(b1-4)GlcNAc(b1-3)Gal(b1-4)GlcNAc(b1-2)Man(a1-3)[Neu5Ac(a2-3)Gal(b1-4)GlcNAc(b1-3)Gal(b1-4)GlcNAc(b1-3)Gal(b1-4)GlcNAc(b1-2)Man(a1-6)]GalNAc
Procedure, shortened: as §1

[39] = target: Neu5Ac(a2-3)Gal(b1-4)GlcNAc(b1-3)Gal(b1-4)GlcNAc(b1-3)GalNAc
Procedure, shortened: as §1

[40] = target: Neu5Ac(a2-3)Gal(b1-4)GlcNAc(b1-3)Gal(b1-4)GlcNAc(b1-3)[Neu5Ac(a2-3)Gal(b1-4)GlcNAc(b1-3)Gal(b1-4)GlcNAc(b1-6)]GalNAc
Procedure, shortened: as §1

[41] = target: Neu5Ac(a2-3)Gal(b1-4)GlcNAc(b1-3)Gal(b1-4)GlcNAc(b1-6)[Gal(b1-3)]GalNAc
Procedure, shortened: as §1

[42] = target: Neu5Ac(a2-3)Gal(b1-4)GlcNAc(b1-3)Gal(b1-4)[Fuc(a1-3)]GlcNAc
Procedure, shortened: as §1

[43] = target: Neu5Ac(a2-3)Gal(b1-4)GlcNAc(b1-3)GalNAc
Procedure, shortened: as §1

[44] = target: Neu5Ac(a2-3)Gal(b1-4)GlcNAc(b1-3)[Neu5Ac(a2-3)Gal(b1-4)GlcNAc(b1-6)]GalNAc
Procedure, shortened: as §1

B1: Awp3 (Candida glabrata), B4UN32 (protein)
chain: MISFVTLLAILGLLSISWADQTVRSVAGDQRVTDPVIVGDNSILDYYGGSNYDFSNNFEIGRGTLYIGKESYFSSFQSAPTDVPNSFHLLIKNTNNLQNNGQFIIENIKRHANQCSNSSIQVFPINFQNDGEFEIISGGVEGRCCLPTSVIAPQNFLNNGKFYYKVLTDTGSIYSGSCMQNVDIGASTTTTVNNNLWEFTGSINAQINGAVSGAAQINLDGSNMFVNANTFSGQVVNLINGGSFLQTSDPLSNIVVINGLGTSDTGVTSIAVKGKGKSFTYNPSSGIVKLTTVEGKTYAYQIGCGYNTKKFITNNDSGASYESADNFFVLTYSEPYSPQTCQLENSSIFSSNFISTSTSSSSSSSSASSLPSSMSSSLPSSLSSSLSSSLSSSMSSSMSSLFIIPPPYTTTRSSGSSIIDTEIVSFYSTTDSPGHTITGTTTTTLYGPHTHSSVSTPSSSSESSTTSNSSIESSSLPHTSVSSTPESSITPSSNTISSSPTSDFSSVQSSSIMESSSVVASSSVINSSSIVDSSSSSASSLPSSMSSSLSSSMSSSLPSSMSSSLSSSLSSSLSSSMSSSMSSLFIIPPPYTTTRSSGSSIIDTEIVSFYSTTDSPGHTITGTTTTTLYGPHTHSSVSTPSSSSESSTTSNSSIESSSLPHTSVSSTPESSITPSSNTISSSPTSDFSSVQSSSIMESSSVVASSSVINSSSIVDSSSSSASSLPSSMPSSLPSSMSSSLSSSMSSSLSSSLSSSLSSSMSSSMSSLFIIPPPYTTTRSSGSSIIDTEIVSFYSTTDSPGHTITGTTTTTLYGPHTHSSVSTPSSSSESSTTSNSSIESSSLPHTSVSSTPESSITPSSNTISSSPTSDFSSVQSSSIMESSSVVASSSATQSSSVINSSSIVDSSSSSASSLPSSMPSSLPSSLSSSLSSSLSSSMSSSMSSLFIIPPPYTTTRSSGSSIIDTEIVSFYSTTDSPGHTITGTTTTTLYESSIYSSSSSTIQESELSNTSRTTMTSNSSVSISSTSSRSSFSNTKSSTIVISQSASLPDSKTDIILSTSSNIGYSSRSLLSDLGTSISDSDIHHSVLHSTESYSSNESGTNPFTSIASLSNFIPESSSHTSTALGSENSVISSDILTTMSHPVATNSGDKPTTPKRSEQVSTTMTSSGPTPDTSSFDTDGMSAYSRPEFTTNSLEVNKSSTSQLGNNKQTFSNLQLESTRPHSENEVDNNTRLLQSIQQSSTYGTNNVNPLSPTGSISIPLTEDGQGDNNNWNSPATNDLCTQISFNLTATTITVTDRITITDSIHDISSEVITSYIYQTIVDQKTVTQTVDGKSLANKMSSIPKPSSRSLIQPQPPVAIELQEGAASTSRVSLVSLFISIILVLL
Q: What does the source list for B1?
A: glycan array binding signal (z-score) [1]: -0.008; glycan array binding signal (z-score) [2]: -0.882; glycan array binding signal (z-score) [3]: 0.473; glycan array binding signal (z-score) [4]: -0.398; glycan array binding signal (z-score) [5]: -0.714; glycan array binding signal (z-score) [6]: -0.569; glycan array binding signal (z-score) [7]: 0.353; glycan array binding signal (z-score) [8]: 0.208; glycan array binding signal (z-score) [9]: 0.337; glycan array binding signal (z-score) [10]: 0.813; glycan array binding signal (z-score) [11]: 0.194; glycan array binding signal (z-score) [12]: -2.3; glycan array binding signal (z-score) [13]: 0.37; glycan array binding signal (z-score) [14]: 0.123; glycan array binding signal (z-score) [15]: -0.639; glycan array binding signal (z-score) [16]: -0.349; glycan array binding signal (z-score) [17]: -0.755; glycan array binding signal (z-score) [18]: -0.552; glycan array binding signal (z-score) [19]: -0.215; glycan array binding signal (z-score) [20]: 0.897; glycan array binding signal (z-score) [21]: -0.258; glycan array binding signal (z-score) [22]: 0.9; glycan array binding signal (z-score) [23]: -1.42; glycan array binding signal (z-score) (Neu5Ac(a2-3)Gal(b1-4)Glc): -0.47; glycan array binding signal (z-score) [24]: -0.509; glycan array binding signal (z-score) [25]: -0.323; glycan array binding signal (z-score) [26]: 1.78; glycan array binding signal (z-score) [27]: -0.92; glycan array binding signal (z-score) [28]: 0.013; glycan array binding signal (z-score) [29]: 1.05; glycan array binding signal (z-score) [30]: -0.445; glycan array binding signal (z-score) [31]: 1.88; glycan array binding signal (z-score) [32]: 2.13; glycan array binding signal (z-score) [33]: -0.194; glycan array binding signal (z-score) [34]: -0.606; glycan array binding signal (z-score) [35]: 0.144; glycan array binding signal (z-score) [36]: -1.07; glycan array binding signal (z-score) [37]: 1.98; glycan array binding signal (z-score) [38]: 0.664; glycan array binding signal (z-score) [39]: 1.14; glycan array binding signal (z-score) [40]: -0.242; glycan array binding signal (z-score) [41]: -0.947; glycan array binding signal (z-score) [42]: -0.784; glycan array binding signal (z-score) [43]: -0.902; glycan array binding signal (z-score) [44]: -0.74
